Measured values taken from article PMC8357957.
No constants are given. Whether binding was seen depends on the method and setting. Binding seen in cells or lysates may run through a third protein. Some results given as binding are weak or reduced against the parent protein; the word gives no strength.

The chains behind the UniProt entries cited, without tags or fusion partners.
UniProt Q62318: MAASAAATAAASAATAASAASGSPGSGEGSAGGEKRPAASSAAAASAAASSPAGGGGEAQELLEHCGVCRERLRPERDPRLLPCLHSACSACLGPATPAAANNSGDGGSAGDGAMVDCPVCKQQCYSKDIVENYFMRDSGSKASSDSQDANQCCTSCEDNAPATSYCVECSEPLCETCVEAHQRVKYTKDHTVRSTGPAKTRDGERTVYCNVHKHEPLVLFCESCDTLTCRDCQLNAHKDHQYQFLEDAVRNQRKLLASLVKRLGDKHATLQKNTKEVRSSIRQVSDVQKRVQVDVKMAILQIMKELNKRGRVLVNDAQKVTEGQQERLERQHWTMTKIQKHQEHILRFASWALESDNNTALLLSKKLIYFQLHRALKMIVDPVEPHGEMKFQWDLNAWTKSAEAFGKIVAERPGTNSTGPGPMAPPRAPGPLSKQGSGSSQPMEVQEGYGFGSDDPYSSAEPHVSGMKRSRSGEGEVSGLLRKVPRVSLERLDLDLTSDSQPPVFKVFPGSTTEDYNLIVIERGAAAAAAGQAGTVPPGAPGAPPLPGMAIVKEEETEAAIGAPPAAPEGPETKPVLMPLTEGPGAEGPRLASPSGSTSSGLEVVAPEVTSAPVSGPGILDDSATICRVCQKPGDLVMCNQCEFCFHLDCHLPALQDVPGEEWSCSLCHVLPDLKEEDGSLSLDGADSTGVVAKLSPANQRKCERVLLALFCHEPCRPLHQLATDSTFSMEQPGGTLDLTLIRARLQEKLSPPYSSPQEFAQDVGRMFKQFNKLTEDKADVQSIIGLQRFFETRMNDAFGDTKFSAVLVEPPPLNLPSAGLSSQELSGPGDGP
UniProt Q64511: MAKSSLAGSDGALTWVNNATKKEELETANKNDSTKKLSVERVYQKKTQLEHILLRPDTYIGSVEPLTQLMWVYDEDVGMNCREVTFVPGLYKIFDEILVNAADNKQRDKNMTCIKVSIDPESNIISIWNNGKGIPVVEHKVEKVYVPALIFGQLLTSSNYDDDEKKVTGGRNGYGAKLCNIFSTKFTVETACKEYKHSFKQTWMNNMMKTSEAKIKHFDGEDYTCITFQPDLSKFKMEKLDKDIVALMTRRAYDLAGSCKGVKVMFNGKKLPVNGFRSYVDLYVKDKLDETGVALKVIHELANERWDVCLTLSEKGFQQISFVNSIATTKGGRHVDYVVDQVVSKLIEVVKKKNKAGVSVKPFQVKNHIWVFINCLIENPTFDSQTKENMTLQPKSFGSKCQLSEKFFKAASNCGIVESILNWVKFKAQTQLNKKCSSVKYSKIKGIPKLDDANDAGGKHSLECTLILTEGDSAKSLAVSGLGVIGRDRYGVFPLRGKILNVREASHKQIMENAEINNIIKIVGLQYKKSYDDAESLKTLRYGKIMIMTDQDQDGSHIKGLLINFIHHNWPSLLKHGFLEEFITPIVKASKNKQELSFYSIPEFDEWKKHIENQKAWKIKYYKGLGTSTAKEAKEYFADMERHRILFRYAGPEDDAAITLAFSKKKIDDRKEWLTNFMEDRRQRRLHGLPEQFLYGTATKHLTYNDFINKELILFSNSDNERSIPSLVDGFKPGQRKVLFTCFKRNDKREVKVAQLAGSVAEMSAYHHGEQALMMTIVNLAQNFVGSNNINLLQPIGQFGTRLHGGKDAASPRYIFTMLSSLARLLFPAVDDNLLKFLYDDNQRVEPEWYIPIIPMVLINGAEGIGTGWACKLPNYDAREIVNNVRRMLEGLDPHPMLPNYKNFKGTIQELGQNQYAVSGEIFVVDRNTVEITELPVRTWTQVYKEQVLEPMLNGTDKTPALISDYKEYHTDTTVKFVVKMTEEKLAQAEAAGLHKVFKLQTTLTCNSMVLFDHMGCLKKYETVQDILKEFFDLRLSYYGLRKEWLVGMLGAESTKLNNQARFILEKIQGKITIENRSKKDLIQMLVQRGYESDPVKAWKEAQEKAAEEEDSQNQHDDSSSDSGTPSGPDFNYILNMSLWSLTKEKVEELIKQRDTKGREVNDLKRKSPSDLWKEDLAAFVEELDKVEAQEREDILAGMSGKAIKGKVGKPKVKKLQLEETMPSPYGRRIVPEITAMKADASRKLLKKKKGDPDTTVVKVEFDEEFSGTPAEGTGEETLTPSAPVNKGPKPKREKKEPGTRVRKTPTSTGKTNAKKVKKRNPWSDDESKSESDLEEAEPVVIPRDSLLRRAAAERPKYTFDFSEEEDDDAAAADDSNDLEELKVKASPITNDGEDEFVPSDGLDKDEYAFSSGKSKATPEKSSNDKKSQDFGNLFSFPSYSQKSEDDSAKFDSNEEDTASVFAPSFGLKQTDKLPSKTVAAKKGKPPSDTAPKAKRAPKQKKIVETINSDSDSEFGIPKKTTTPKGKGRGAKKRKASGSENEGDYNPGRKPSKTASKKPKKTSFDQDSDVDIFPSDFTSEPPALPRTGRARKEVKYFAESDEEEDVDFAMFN
UniProt Q60596: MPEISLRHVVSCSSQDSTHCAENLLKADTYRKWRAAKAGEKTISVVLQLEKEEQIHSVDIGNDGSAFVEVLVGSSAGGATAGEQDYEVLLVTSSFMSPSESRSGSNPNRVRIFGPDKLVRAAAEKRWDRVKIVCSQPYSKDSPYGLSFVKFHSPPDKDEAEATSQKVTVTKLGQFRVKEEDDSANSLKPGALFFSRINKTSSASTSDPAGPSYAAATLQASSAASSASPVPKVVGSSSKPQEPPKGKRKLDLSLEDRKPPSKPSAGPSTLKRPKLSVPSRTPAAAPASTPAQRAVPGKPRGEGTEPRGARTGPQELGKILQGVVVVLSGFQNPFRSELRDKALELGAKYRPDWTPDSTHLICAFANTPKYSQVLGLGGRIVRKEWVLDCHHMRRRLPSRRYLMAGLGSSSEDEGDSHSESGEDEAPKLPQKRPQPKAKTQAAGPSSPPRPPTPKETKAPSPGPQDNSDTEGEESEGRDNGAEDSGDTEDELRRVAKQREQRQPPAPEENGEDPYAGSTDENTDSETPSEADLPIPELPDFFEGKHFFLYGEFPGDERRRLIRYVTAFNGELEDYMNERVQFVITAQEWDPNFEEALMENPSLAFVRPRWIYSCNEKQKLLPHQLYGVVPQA
UniProt P11103: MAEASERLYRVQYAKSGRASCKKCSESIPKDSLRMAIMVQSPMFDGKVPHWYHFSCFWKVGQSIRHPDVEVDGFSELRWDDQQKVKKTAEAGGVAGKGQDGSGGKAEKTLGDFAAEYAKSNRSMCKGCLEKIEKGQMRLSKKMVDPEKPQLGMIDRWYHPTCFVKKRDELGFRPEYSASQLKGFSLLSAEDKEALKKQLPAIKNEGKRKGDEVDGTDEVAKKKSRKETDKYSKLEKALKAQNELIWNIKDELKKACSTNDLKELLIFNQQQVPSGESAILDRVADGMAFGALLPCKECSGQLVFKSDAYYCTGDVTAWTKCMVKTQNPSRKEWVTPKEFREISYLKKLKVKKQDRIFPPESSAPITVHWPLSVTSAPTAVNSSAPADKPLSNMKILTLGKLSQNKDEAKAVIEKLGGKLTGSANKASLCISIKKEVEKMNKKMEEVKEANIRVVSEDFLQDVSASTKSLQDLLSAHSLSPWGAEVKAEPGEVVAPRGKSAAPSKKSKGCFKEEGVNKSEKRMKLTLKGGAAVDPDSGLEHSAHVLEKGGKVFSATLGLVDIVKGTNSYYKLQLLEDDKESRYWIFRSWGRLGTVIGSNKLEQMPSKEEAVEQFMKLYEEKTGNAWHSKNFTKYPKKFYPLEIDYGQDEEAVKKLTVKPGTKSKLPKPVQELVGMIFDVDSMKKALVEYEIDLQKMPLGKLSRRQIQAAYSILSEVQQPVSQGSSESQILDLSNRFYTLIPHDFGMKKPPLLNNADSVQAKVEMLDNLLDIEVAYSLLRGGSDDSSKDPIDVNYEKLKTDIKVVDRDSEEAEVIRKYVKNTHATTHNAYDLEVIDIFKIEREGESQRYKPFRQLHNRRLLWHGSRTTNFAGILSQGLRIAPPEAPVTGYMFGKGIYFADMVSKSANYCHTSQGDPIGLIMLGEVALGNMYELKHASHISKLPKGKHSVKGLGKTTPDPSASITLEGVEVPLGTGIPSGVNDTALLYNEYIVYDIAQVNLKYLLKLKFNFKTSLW
UniProt P40201: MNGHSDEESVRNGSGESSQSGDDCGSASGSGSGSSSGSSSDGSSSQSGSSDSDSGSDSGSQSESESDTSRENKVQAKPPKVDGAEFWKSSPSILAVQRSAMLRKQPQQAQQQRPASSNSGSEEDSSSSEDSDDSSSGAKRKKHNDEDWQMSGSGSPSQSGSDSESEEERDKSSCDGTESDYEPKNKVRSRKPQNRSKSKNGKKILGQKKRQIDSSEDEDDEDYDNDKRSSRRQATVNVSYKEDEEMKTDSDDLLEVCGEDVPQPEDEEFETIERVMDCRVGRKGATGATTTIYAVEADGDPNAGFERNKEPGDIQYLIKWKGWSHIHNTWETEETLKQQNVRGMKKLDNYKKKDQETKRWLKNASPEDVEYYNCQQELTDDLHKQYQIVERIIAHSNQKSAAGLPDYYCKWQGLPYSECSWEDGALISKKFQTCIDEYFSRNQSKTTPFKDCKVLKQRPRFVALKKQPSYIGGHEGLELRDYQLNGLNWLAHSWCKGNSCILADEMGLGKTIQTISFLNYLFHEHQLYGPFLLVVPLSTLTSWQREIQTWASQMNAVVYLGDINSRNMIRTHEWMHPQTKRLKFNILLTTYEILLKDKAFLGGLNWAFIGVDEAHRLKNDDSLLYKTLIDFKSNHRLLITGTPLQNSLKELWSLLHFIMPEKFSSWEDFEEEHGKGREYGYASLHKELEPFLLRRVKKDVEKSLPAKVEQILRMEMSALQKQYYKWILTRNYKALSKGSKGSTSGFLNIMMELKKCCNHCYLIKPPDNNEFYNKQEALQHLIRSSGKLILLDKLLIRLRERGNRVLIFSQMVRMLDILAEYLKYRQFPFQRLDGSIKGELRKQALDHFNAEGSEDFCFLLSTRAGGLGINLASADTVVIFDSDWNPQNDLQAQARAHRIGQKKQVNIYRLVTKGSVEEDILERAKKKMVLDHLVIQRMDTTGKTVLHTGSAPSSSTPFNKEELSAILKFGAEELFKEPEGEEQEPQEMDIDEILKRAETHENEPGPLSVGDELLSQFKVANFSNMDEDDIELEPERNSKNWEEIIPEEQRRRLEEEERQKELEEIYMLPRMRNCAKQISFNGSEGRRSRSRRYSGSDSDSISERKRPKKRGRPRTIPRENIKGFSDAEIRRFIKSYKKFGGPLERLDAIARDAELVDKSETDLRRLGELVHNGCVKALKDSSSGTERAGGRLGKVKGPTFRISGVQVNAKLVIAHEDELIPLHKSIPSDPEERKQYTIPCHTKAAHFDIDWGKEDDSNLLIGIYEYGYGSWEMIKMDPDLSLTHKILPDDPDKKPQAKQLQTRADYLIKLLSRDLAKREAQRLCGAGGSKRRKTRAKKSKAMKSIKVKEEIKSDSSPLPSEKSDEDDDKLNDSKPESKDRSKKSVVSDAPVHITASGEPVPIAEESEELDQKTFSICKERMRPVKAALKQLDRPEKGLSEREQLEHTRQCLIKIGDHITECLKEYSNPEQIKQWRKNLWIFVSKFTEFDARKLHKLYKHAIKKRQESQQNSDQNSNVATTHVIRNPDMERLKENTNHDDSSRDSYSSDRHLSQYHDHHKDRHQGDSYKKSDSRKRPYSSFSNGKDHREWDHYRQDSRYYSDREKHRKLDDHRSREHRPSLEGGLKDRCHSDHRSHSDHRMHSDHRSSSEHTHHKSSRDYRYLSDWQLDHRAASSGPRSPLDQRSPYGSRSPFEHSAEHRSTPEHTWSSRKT

Experiments:
Experiment in all cases: co-IP; 100 ug nuclear extract of ES cells, 150 mM final NaCl, Protein A or G Dynabeads with antibodies (Flag, Kap1, Atm phospho S1981, Atr, Parp1, Top2β, Xrcc1); beads washed three times in buffer B; Western blot
[1] = target: Kap1 (mouse (endogenous in ES cells)) (UniProt Q62318)
[2] = target: topoisomerase 2β (Top2β) (mouse (endogenous in ES cells)) (UniProt Q64511)
[3] = target: single-stranded repair factor Xrcc1 (mouse (endogenous in ES cells)) (UniProt Q60596)
[4] = target: Parp1 (mouse (endogenous in ES cells)) (UniProt P11103)

binding [1]: binds | binding [2]: binds | binding [3]: no binding | binding [4]: binds
Substance: Chd1 (endogenous, wild-type ES cells) (from UniProt P40201 1-1711) (enzyme)
